# Assay results published in the supplement of paper PMC8728848.
# The other results are listed elsewhere or left out.
# B1: CD72 ectodomain (Homo sapiens), P21854 (protein)
# chain: RYLQVSQQLQQTNRVLEVTNSSLRQQLRLKITQLGQSAEDLQGSRRELAQSQEALQVEQRAHQAAEGQLQACQADRQKTKETLQSEEQQRRALEQKLSNMENRLKPFFTCGSADTCCPSGWIMHQKSCFYISLTSKNWQESQKQCETLSSKLATFSEIYPQSHSYYFLNSLLPNGGSGNSYWTGLSSNKDWKLTDDTQRTRTYAQSSKCNKVHKTWSWWTLESESCRSSLPYICEMTAFRFPD
# Key:
# Experiment in all cases: glycan array binding signal (z-score within array); higher = stronger binding
# Details in all cases: glycan notation: IUPAC condensed, linker removed
# [1] = biological target: Fuc(a1-2)[Gal(a1-3)]Gal(b1-4)Glc
# Procedure, shortened: (§1)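 Columns mapping to the same glycan were averaged after glycan names were converted to IUPAC-condensed notation. The data come from 3228 arrays in the Consortium for Functional Glycomics database, limited to those with an available protein sequence. Binding is reported as a within-array Z-score averaged across arrays of one protein sequence and across linkers.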
# [2] = biological target: Fuc(a1-2)[Gal(a1-3)]Gal(b1-4)GlcNAc
# Procedure, shortened: as §1
# [3] = biological target: Fuc(a1-2)[Gal(a1-3)]Gal(b1-4)GlcNAc(b1-2)Man(a1-3)[Fuc(a1-2)[Gal(a1-3)]Gal(b1-4)GlcNAc(b1-2)Man(a1-6)]Man(b1-4)GlcNAc(b1-4)GlcNAc
# Procedure, shortened: as §1
# [4] = biological target: Fuc(a1-2)[Gal(a1-3)]Gal(b1-4)GlcNAc(b1-2)Man(a1-3)[Fuc(a1-2)[Gal(a1-3)]Gal(b1-4)GlcNAc(b1-2)Man(a1-6)]Man(b1-4)GlcNAc(b1-4)[Fuc(a1-6)]GlcNAc
# Procedure, shortened: as §1
# [5] = biological target: Fuc(a1-2)[Gal(a1-3)]Gal(b1-4)GlcNAc(b1-3)GalNAc
# Procedure, shortened: as §1
# [6] = biological target: Fuc(a1-2)[Gal(a1-3)]Gal(b1-4)[Fuc(a1-3)]Glc
# Procedure, shortened: as §1
# [7] = biological target: Fuc(a1-2)[Gal(a1-3)]Gal(b1-4)[Fuc(a1-3)]GlcNAc
# Procedure, shortened: as §1
# [8] = biological target: Fuc(a1-2)[Gal(a1-3)]Gal(b1-4)[Fuc(a1-3)]GlcNAc(b1-3)GalNAc
# Procedure, shortened: as §1
# [9] = biological target: Fuc(a1-2)[Gal(a1-4)]Gal(b1-4)GlcNAc
# Procedure, shortened: as §1
# [10] = biological target: Fuc(a1-2)[GalNAc(a1-3)]Gal
# Procedure, shortened: as §1
# [11] = biological target: Fuc(a1-2)[GalNAc(a1-3)]Gal(b1-3)GalNAc(a1-3)[Fuc(a1-2)]Gal(b1-4)GlcNAc
# Procedure, shortened: as §1
# [12] = biological target: Fuc(a1-2)[GalNAc(a1-3)]Gal(b1-3)GlcNAc
# Procedure, shortened: as §1
# [13] = biological target: Fuc(a1-2)[GalNAc(a1-3)]Gal(b1-3)GlcNAc(b1-2)Man(a1-3)[Fuc(a1-2)[GalNAc(a1-3)]Gal(b1-3)GlcNAc(b1-2)Man(a1-6)]Man(b1-4)GlcNAc(b1-4)GlcNAc
# Procedure, shortened: as §1
# [14] = biological target: Fuc(a1-2)[GalNAc(a1-3)]Gal(b1-3)GlcNAc(b1-2)Man(a1-3)[Fuc(a1-2)[GalNAc(a1-3)]Gal(b1-3)GlcNAc(b1-2)Man(a1-6)]Man(b1-4)GlcNAc(b1-4)[Fuc(a1-6)]GlcNAc
# Procedure, shortened: as §1
# [15] = biological target: Fuc(a1-2)[GalNAc(a1-3)]Gal(b1-3)GlcNAc(b1-3)GalNAc
# Procedure, shortened: as §1
# [16] = biological target: Fuc(a1-2)[GalNAc(a1-3)]Gal(b1-4)Glc
# Procedure, shortened: as §1
# [17] = biological target: Fuc(a1-2)[GalNAc(a1-3)]Gal(b1-4)GlcNAc
# Procedure, shortened: as §1
# [18] = biological target: Fuc(a1-2)[GalNAc(a1-3)]Gal(b1-4)GlcNAc(b1-2)Man(a1-3)[Fuc(a1-2)[GalNAc(a1-3)]Gal(b1-4)GlcNAc(b1-2)Man(a1-6)]Man(b1-4)GlcNAc(b1-4)GlcNAc
# Procedure, shortened: as §1
# [19] = biological target: Fuc(a1-2)[GalNAc(a1-3)]Gal(b1-4)GlcNAc(b1-2)Man(a1-3)[Fuc(a1-2)[GalNAc(a1-3)]Gal(b1-4)GlcNAc(b1-2)Man(a1-6)]Man(b1-4)GlcNAc(b1-4)[Fuc(a1-6)]GlcNAc
# Procedure, shortened: as §1
# [20] = biological target: Fuc(a1-2)[GalNAc(a1-3)]Gal(b1-4)GlcNAc(b1-3)Gal(b1-4)GlcNAc
# Procedure, shortened: as §1
# [21] = biological target: Fuc(a1-2)[GalNAc(a1-3)]Gal(b1-4)GlcNAc(b1-3)Gal(b1-4)GlcNAc(b1-3)Gal(b1-4)GlcNAc
# Procedure, shortened: as §1
# [22] = biological target: Fuc(a1-2)[GalNAc(a1-3)]Gal(b1-4)GlcNAc(b1-3)GalNAc
# Procedure, shortened: as §1
# [23] = biological target: Fuc(a1-2)[GalNAc(a1-3)]Gal(b1-4)[Fuc(a1-3)]GlcNAc
# Procedure, shortened: as §1
# [24] = biological target: Fuc(a1-2)[GalNAc(a1-3)]Gal(b1-4)[Fuc(a1-3)]GlcNAc(b1-3)GalNAc
# Procedure, shortened: as §1
# [25] = biological target: Fuc(a1-2)[GalNAc(a1-4)]Gal(b1-4)GlcNAc
# Procedure, shortened: as §1
# [26] = biological target: Fuc(a1-2)[GalNAc(b1-3)]Gal
# Procedure, shortened: as §1
# Fuc(a1-3)GlcNAc = biological target: Fuc(a1-3)GlcNAc
# Procedure, shortened: as §1
# [27] = biological target: Fuc(a1-3)[Gal(b1-4)]Glc6S
# Procedure, shortened: as §1
# [28] = biological target: Fuc(a1-3)[Gal(b1-4)]GlcNAc
# Procedure, shortened: as §1
# [29] = biological target: Fuc(a1-3)[Gal(b1-4)]GlcNAc(b1-2)Man(a1-3)[Fuc(a1-3)[Gal(b1-4)]GlcNAc(b1-2)Man(a1-6)]Man(b1-4)GlcNAc(b1-4)GlcNAc
# Procedure, shortened: as §1
# [30] = biological target: Fuc(a1-3)[Gal(b1-4)]GlcNAc(b1-2)Man(a1-3)[Fuc(a1-3)[Gal(b1-4)]GlcNAc(b1-2)Man(a1-6)]Man(b1-4)GlcNAc(b1-4)[Fuc(a1-6)]GlcNAc
# Procedure, shortened: as §1
# [31] = biological target: Fuc(a1-3)[Gal(b1-4)]GlcNAc(b1-3)Gal(b1-3)[Fuc(a1-4)]GlcNAc
# Procedure, shortened: as §1
# [32] = biological target: Fuc(a1-3)[Gal(b1-4)]GlcNAc(b1-3)GalNAc
# Procedure, shortened: as §1
# [33] = biological target: Fuc(a1-3)[Gal(b1-4)]GlcNAc(b1-4)Gal(b1-4)[Fuc(a1-3)]GlcNAc
# Procedure, shortened: as §1
# [34] = biological target: Fuc(a1-3)[Gal(b1-4)]GlcNAc(b1-4)Gal(b1-4)[Fuc(a1-3)]GlcNAc(b1-4)Gal(b1-4)[Fuc(a1-3)]GlcNAc
# Procedure, shortened: as §1
# [35] = biological target: Fuc(a1-3)[Gal(b1-4)]GlcNAc(b1-6)GalNAc
# Procedure, shortened: as §1
# [36] = biological target: Fuc(a1-3)[Gal(b1-4)]GlcNAc(b1-6)[Gal(b1-3)GlcNAc(b1-3)]Gal(b1-4)Glc
# Procedure, shortened: as §1
# [37] = biological target: Fuc(a1-3)[Gal(b1-4)]GlcNAc(b1-6)[Neu5Ac(a2-3)Gal(b1-3)]GalNAc
# Procedure, shortened: as §1
# [38] = biological target: Fuc(a1-3)[Gal(b1-4)]GlcNAc6S
# Procedure, shortened: as §1
# [39] = biological target: Fuc(a1-3)[Gal3S(b1-4)]GlcNAc
# Procedure, shortened: as §1
# [40] = biological target: Fuc(a1-3)[Gal3S(b1-4)]GlcNAc6S
# Procedure, shortened: as §1
# [41] = biological target: Fuc(a1-3)[GalNAc(b1-4)]GlcNAc
# Procedure, shortened: as §1
# Fuc(a1-4)GlcNAc = biological target: Fuc(a1-4)GlcNAc
# Procedure, shortened: as §1
# Fuc(b1-3)GlcNAc = biological target: Fuc(b1-3)GlcNAc
# Procedure, shortened: as §1
# Gal(a1-2)Gal = biological target: Gal(a1-2)Gal
# Procedure, shortened: as §1
binder,measurement,setting,value
B1,glycan array binding signal (z-score),[1],0.3
same,glycan array binding signal (z-score),[2],0.108
same,glycan array binding signal (z-score),[3],-0.575
same,glycan array binding signal (z-score),[4],0.336
same,glycan array binding signal (z-score),[5],-1.34
same,glycan array binding signal (z-score),[6],-0.565
same,glycan array binding signal (z-score),[7],0.333
same,glycan array binding signal (z-score),[8],-0.443
same,glycan array binding signal (z-score),[9],-0.271
same,glycan array binding signal (z-score),[10],-0.253
same,glycan array binding signal (z-score),[11],1.44
same,glycan array binding signal (z-score),[12],0.299
same,glycan array binding signal (z-score),[13],-0.961
same,glycan array binding signal (z-score),[14],1.28
same,glycan array binding signal (z-score),[15],0.401
same,glycan array binding signal (z-score),[16],-0.821
same,glycan array binding signal (z-score),[17],0.03
same,glycan array binding signal (z-score),[18],0.299
same,glycan array binding signal (z-score),[19],0.886
same,glycan array binding signal (z-score),[20],-1.23
same,glycan array binding signal (z-score),[21],-0.098
same,glycan array binding signal (z-score),[22],0.592
same,glycan array binding signal (z-score),[23],1.95
same,glycan array binding signal (z-score),[24],0.623
same,glycan array binding signal (z-score),[25],0.065
same,glycan array binding signal (z-score),[26],0.747
same,glycan array binding signal (z-score),Fuc(a1-3)GlcNAc,-1.12
same,glycan array binding signal (z-score),[27],0.961
same,glycan array binding signal (z-score),[28],0.013
same,glycan array binding signal (z-score),[29],-0.986
same,glycan array binding signal (z-score),[30],0.575
same,glycan array binding signal (z-score),[31],-0.626
same,glycan array binding signal (z-score),[32],0.853
same,glycan array binding signal (z-score),[33],0.511
same,glycan array binding signal (z-score),[34],-1.08
same,glycan array binding signal (z-score),[35],1.78
same,glycan array binding signal (z-score),[36],-0.846
same,glycan array binding signal (z-score),[37],-0.261
same,glycan array binding signal (z-score),[38],0.197
same,glycan array binding signal (z-score),[39],0.084
same,glycan array binding signal (z-score),[40],-1.53
same,glycan array binding signal (z-score),[41],-1.58
same,glycan array binding signal (z-score),Fuc(a1-4)GlcNAc,-0.976
same,glycan array binding signal (z-score),Fuc(b1-3)GlcNAc,-2.09
same,glycan array binding signal (z-score),Gal(a1-2)Gal,0.56

# Random excerpt: 2 entries already listed
binder,measurement,setting,value
B1,glycan array binding signal (z-score),[30],0.575
same,glycan array binding signal (z-score),[8],-0.443
